Assay results taken from PMC12624607.

Sequences of proteins named here, by UniProt entry; tags and fusion partners are left off.
UniProt Q9DAM2: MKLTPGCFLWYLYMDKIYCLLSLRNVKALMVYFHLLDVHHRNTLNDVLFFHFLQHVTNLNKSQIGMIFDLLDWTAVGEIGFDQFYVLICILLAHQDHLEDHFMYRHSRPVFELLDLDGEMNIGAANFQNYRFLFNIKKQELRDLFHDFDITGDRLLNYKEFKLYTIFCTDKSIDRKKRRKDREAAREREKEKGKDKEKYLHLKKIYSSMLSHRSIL

Target: transmembrane protein 249 (TMEM249), GFP-tagged (mouse)
Assay: co-IP; TMEM249-GFP co-transfected with each MYC-tagged CatSper component into HEK293T cells; co-immunoprecipitation complexes immunoblotted with anti-GFP and anti-MYC antibodies; which tag was precipitated is not told

binding	Molecule
binds	EFCAB9, MYC-tagged (from UniProt Q9DAM2 1-216)
binds	CATSPER4, MYC-tagged (protein, UniProt Q8BVN3 1-442) MSEKHKWWQQVENIDITHLGPKRKAYELLGRHEEQVLINRRDVMEKKDAWDVQEFITQMYIKQLLRHPAFQLLLAFLLLSNAITIALRTNSYLGQKHYELFSTIDDIVLTILICEVLLGWLNGFWIFWKDGWNILNFAIVFILFMGFFIKQLDMVAITYPLRVLRLVHVCMAVEPLARIIKVILQSMPDLANVMALILFFMLVFSVFGVTLFGAFVPKHFQNMGVALYTLFICITQDGWLDIYTDFQMDEREYAMEVGGAIYFAVFITLGAFIGLNLFVVVVTTNLEQMMKTGEEEGHLNIKFTETEEDEDWTDELPLVHCTEARKDTSTVPKEPLVGGPLSNLTEKTCDNFCLVLEAIQENLMEYKEIREELNMIVEEVSSIRFNQEQQNVILHKYTSKSATFLSEPPEGANKQDLITALVSREKVSDSNINMVNKHKFSH
binds weakly	CATSPERβ, MYC-tagged (protein, UniProt A2RTF1 1-1109) MESPLIYVMLVLLNVFVFSSGVIHNKGKERTYFSCSGEGILTGLHTIKLFLTMDNLKVRCFFRNENQSPSKEILGLFTSGGLAPNMIITNSTFYGGYYFKLTPFSNRLEWLIDIPRQNITVNTDIAAVEQWMIKITMHEGLNIYDTEGTLLDLVREPILQWNLGRVLTEMEVRDLYPEVNDIKVTKSPCANDVALIGFMMKPSSNGVFIGKTISGFWTYKECIWHDLTEIIYAELKDEHQGLTVIDLVLTNHFLVILTSLGLYVSSDLRYPTTSQIKLSRAEFCGFERVDYIRGNLWYNEKCFANRESFEVDYVTITFNRNRTLSESSSCFFSKEPFLHWLPCVFSTIKNEKSIPRVITFLIDQETDSGIYLFNVQDTKETYVTVAMLKDGKPSPRPKFPSFHFPSTFTLPLGMIFHPRSHFLYVYGSQIWVSMDGGNTFEMLCNLFSHHVTKTSNSFYTSDIVFIVEDGRILTTKAGLTTYSELGILKDAIFTLYYDQLGYIHKLTPENFDAGSKLLGHGNSGSIFGKRPDLGFEAILVPQYISTNEMYFFAHVPLTMPTNIQWKKRFKTIHLGKTIEFSKTGLANIKNVYMHKTEPVGFQTSIHTEIIVPFGIENSKDSPCLLSDLEITYSGKLYYTIKLLSKNPLHELKSTDVEKSVLIPGYSSFLIMNITDKWTASALATMPQAIKSNLKFLTGSWFLYNFGTAGGRKWSISTRQCNYWIQQDSLDFMSLNLVKYIDVGNTIDFQFKIIPKAMSTFPIPPVSMVVGNPGLVEVKTQGVFDLNENYYLDIHVSGRFFQKGSTSIALVLWEGSSKCYAITLLPTIKSSCSYLRTMHHTPGRHIPPEDWISGVHKDSQGFNMIKTLPINYRPPSHMGISIPLTDNFYHADPSKPIPRNQFHKSKETGKYKQCANVTSRAMCNCSEHQKFSHAVAFSDCKEKVHRFKFPVTQYPVVLEIFNERDKISAEPPYLVTMTEVNMRKNWQLKHNEPENVKKMKHYLEPLLKTPVYNPLGLNLTIQGSELFHFKVSVVPGVSFCELSEEFQIYVDEVPLPFPGHALIAVATSVVLGVLIFIAFVFQLRNIHPLKALKKSIRGNPGLTSSTTVSS
no binding	CATSPER1, MYC-tagged (protein, UniProt Q91ZR5 1-686) MDQSSRRDESYHETHPGSLDPSHQSHPHPHPHPTLHRPNQGGVYYDSPQHGMFQQPYQQHGGFHQQNELQHLREFSDSHDNAFSHHSYQQDRAGVSTLPNNISHAYGGSHPLAESQHSGGPQSGPRIDPNHHPHQDDPHRPSEPLSHPSSTGSHQGTTHQQYHERSHHLNPQQNRDHADTISYRSSTRFYRSHAPFSRQERPHLHADHHHEGHHAHSHHGEHPHHKEQRHYHGDHMHHHIHHRSPSASQLSHKSHSTLATSPSHVGSKSTASGARYTFGARSQIFGKAQSRESLRESASLSEGEDHVQKRKKAQRAHKKAHTGNIFQLLWEKISHLLLGLQQMILSLTQSLGFETFIFIVVCLNTVILVAQTFTELEIRGEWYFMVLDSIFLSIYVLEAVLKLIALGLEYFYDPWNNLDFFIMVMAVLDFVLLQINSLSYSFYNHSLFRILKVFKSMRALRAIRVLRRLSILTSLHEVAGTLSGSLPSITAILTLMFTCLFLFSVVLRALFQDSDPKRFQNIFTTLFTLFTMLTLDDWSLIYIDNRAQGAWYIIPILMIYIVIQYFIFLNLVIAVLVDNFQMALLKGLEKVKLEQAARVHEKLLDDSLTDLNKADANAQMTEEALKMQLIEGMFGNMTVKQRVLHFQFLQLVAAVEQHQQKFRSQAYVIDELVDMAFEAGDDDYGK

Results are given in words; binding and its absence hold for the method and conditions named. Binding seen in cells or lysates may run through a third protein. A result given as binding can be weak or reduced; the word gives no strength. Sequences can lack the tags named with a protein.
